The other results are listed elsewhere or left out. For part of these data: Many values rest on one well or one pass, so single values are uncertain.

What all share (conditions): RNA concentration 10 µM; fragment concentration 200 µM; 293 K
One test deals with SARS-CoV-2 5'-UTR RNA. Put plainly: T2 signal reduction relative to ligand without RNA (fraction); higher = stronger binding.
Another test relates to SARS-CoV-2 3_SL1 RNA. As to the kind of experiment: NMR binding call after quantification (hit when 2 of 3 NMR criteria are met) (binary (1 = binding, 0 = not binding)); higher = binding.
A further test relates to SARS-CoV-2 3_SL1+2 RNA. Described as above.
A further test deals with SARS-CoV-2 3_SL2 RNA. Described as above.
For the next test, the system named is SARS-CoV-2 3_SL3base RNA. Described as above.
Another test relates to SARS-CoV-2 3_s2m RNA. The description is as above.
The test system of a further test is SARS-CoV-2 3'-UTR RNA. The description is as above.
For another test, the system named is SARS-CoV-2 5_SL5b+c RNA. As to the kind of experiment: T2 signal reduction relative to ligand without RNA (fraction); higher = stronger binding.

`Cc1ccccc1OCC(=O)Nc1ncccn1` registered a T2 signal reduction in the test with SARS-CoV-2 5'-UTR RNA of 0.2. The NMR binding call in the test with SARS-CoV-2 3_SL1 RNA, in the test with SARS-CoV-2 3_SL1+2 RNA, in the test with SARS-CoV-2 3_SL2 RNA, in the test on SARS-CoV-2 3_SL3base RNA and in the test with SARS-CoV-2 3_s2m RNA was 0 in each case.

As to `COCC(=O)Nc1nc(-c2ccccc2)cs1`, the NMR binding call in the test with SARS-CoV-2 3'-UTR RNA, in the test on SARS-CoV-2 3_SL1 RNA, with SARS-CoV-2 3_SL1+2 RNA, in the test with SARS-CoV-2 3_SL2 RNA, with SARS-CoV-2 3_SL3base RNA and with SARS-CoV-2 3_s2m RNA was 0 in each case.

`CNC(=O)c1nc2ccccc2c(=O)[nH]1` gave a T2 signal reduction in the test on SARS-CoV-2 5'-UTR RNA of 0.48. Also, the NMR binding call came to 1 in the test with SARS-CoV-2 3'-UTR RNA; 0 in the test with SARS-CoV-2 3_SL1 RNA; 0 with SARS-CoV-2 3_SL1+2 RNA; 0 in the test on SARS-CoV-2 3_SL2 RNA; 0 with SARS-CoV-2 3_SL3base RNA; 0 in the test with SARS-CoV-2 3_s2m RNA.

Regarding `CC(C)n1cnc(S(N)(=O)=O)c1`, the NMR binding call in the test on SARS-CoV-2 3'-UTR RNA, with SARS-CoV-2 3_SL1 RNA, in the test with SARS-CoV-2 3_SL1+2 RNA, with SARS-CoV-2 3_SL2 RNA, in the test on SARS-CoV-2 3_SL3base RNA and in the test with SARS-CoV-2 3_s2m RNA was 0 in each case.

For `CN(C)C(=O)c1ccc(F)cc1Br`, the NMR binding call with SARS-CoV-2 3'-UTR RNA, with SARS-CoV-2 3_SL1 RNA, with SARS-CoV-2 3_SL1+2 RNA, in the test with SARS-CoV-2 3_SL2 RNA, in the test with SARS-CoV-2 3_SL3base RNA and in the test on SARS-CoV-2 3_s2m RNA was 0 in each case.

Consider `Cc1nn(C)c(C)c1CN1CCNCC1`, for which the NMR binding call in the test on SARS-CoV-2 3'-UTR RNA, in the test on SARS-CoV-2 3_SL1 RNA, in the test on SARS-CoV-2 3_SL1+2 RNA, with SARS-CoV-2 3_SL2 RNA, in the test with SARS-CoV-2 3_SL3base RNA and in the test on SARS-CoV-2 3_s2m RNA was 0 in each case.

As to `CCS(=O)(=O)Nc1ccccc1F`, the NMR binding call in the test with SARS-CoV-2 3'-UTR RNA, in the test with SARS-CoV-2 3_SL1 RNA, in the test with SARS-CoV-2 3_SL1+2 RNA, with SARS-CoV-2 3_SL2 RNA, with SARS-CoV-2 3_SL3base RNA and in the test with SARS-CoV-2 3_s2m RNA was 0 throughout.

For the molecule `O=C(Cc1ccc(F)cc1)NC1CCCCC1`, the NMR binding call in the test with SARS-CoV-2 3'-UTR RNA, in the test on SARS-CoV-2 3_SL1 RNA, with SARS-CoV-2 3_SL1+2 RNA, in the test with SARS-CoV-2 3_SL2 RNA, in the test on SARS-CoV-2 3_SL3base RNA and in the test on SARS-CoV-2 3_s2m RNA was 0 each time.

`CC1CCN(C(=O)CC(F)(F)F)CC1`: the NMR binding call with SARS-CoV-2 3'-UTR RNA, in the test on SARS-CoV-2 3_SL1 RNA, in the test with SARS-CoV-2 3_SL1+2 RNA, in the test on SARS-CoV-2 3_SL2 RNA, in the test on SARS-CoV-2 3_SL3base RNA and in the test on SARS-CoV-2 3_s2m RNA was 0 each time.

In the test on SARS-CoV-2 5'-UTR RNA, `Cc1c(Cl)cccc1NC(=O)CN.Cl` returned a T2 signal reduction of 0.39. Moreover, the NMR binding call in the test with SARS-CoV-2 3'-UTR RNA, with SARS-CoV-2 3_SL1 RNA, with SARS-CoV-2 3_SL1+2 RNA, with SARS-CoV-2 3_SL2 RNA, in the test on SARS-CoV-2 3_SL3base RNA and with SARS-CoV-2 3_s2m RNA was 0 in each case.

For the molecule `COc1ccc(CN)cc1OC`, the T2 signal reduction with SARS-CoV-2 5_SL5b+c RNA was found to be 0.24. For the same molecule, the NMR binding call with SARS-CoV-2 3'-UTR RNA, in the test on SARS-CoV-2 3_SL1 RNA, with SARS-CoV-2 3_SL1+2 RNA, in the test on SARS-CoV-2 3_SL2 RNA, with SARS-CoV-2 3_SL3base RNA and with SARS-CoV-2 3_s2m RNA was 0 throughout.

In the case of `CS(=O)(=O)N1CCN(Cc2ccco2)CC1.O=C(O)C(=O)O`, the NMR binding call in the test on SARS-CoV-2 3'-UTR RNA, in the test on SARS-CoV-2 3_SL1 RNA, in the test with SARS-CoV-2 3_SL1+2 RNA, in the test on SARS-CoV-2 3_SL2 RNA, in the test on SARS-CoV-2 3_SL3base RNA and in the test on SARS-CoV-2 3_s2m RNA was 0 each time.

Regarding `O=C(Nc1ccc(-n2cnnn2)cc1)C1CCC1`, the NMR binding call with SARS-CoV-2 3'-UTR RNA, in the test on SARS-CoV-2 3_SL1 RNA, in the test on SARS-CoV-2 3_SL1+2 RNA, with SARS-CoV-2 3_SL2 RNA, in the test with SARS-CoV-2 3_SL3base RNA and with SARS-CoV-2 3_s2m RNA was 0 each time.

Turning to `Cc1cccc(C(=O)NCC(=O)O)c1`, the NMR binding call in the test with SARS-CoV-2 3'-UTR RNA, with SARS-CoV-2 3_SL1 RNA, in the test on SARS-CoV-2 3_SL1+2 RNA, in the test with SARS-CoV-2 3_SL2 RNA, in the test with SARS-CoV-2 3_SL3base RNA and in the test with SARS-CoV-2 3_s2m RNA was 0 throughout.

As for `CC(O)COc1cccc(F)c1` (stereo not given), the NMR binding call with SARS-CoV-2 3'-UTR RNA, in the test with SARS-CoV-2 3_SL1 RNA, in the test on SARS-CoV-2 3_SL1+2 RNA, with SARS-CoV-2 3_SL2 RNA, with SARS-CoV-2 3_SL3base RNA and in the test on SARS-CoV-2 3_s2m RNA was 0 throughout.

With `Cc1cc(C(=O)Nc2ccn(C)n2)on1`, the NMR binding call with SARS-CoV-2 3'-UTR RNA, with SARS-CoV-2 3_SL1 RNA, with SARS-CoV-2 3_SL1+2 RNA, with SARS-CoV-2 3_SL2 RNA, in the test with SARS-CoV-2 3_SL3base RNA and with SARS-CoV-2 3_s2m RNA was 0 in each case.

Regarding `c1cnc(NC2CCCCCC2)nc1`, the NMR binding call in the test on SARS-CoV-2 3'-UTR RNA, with SARS-CoV-2 3_SL1 RNA, in the test with SARS-CoV-2 3_SL1+2 RNA, in the test with SARS-CoV-2 3_SL2 RNA, with SARS-CoV-2 3_SL3base RNA and in the test with SARS-CoV-2 3_s2m RNA was 0 throughout.
